Experimental data published in US20040072301A1.
No constants are given. Whether binding was seen depends on the method and setting. Binding seen in cells or lysates may run through a third protein. Some binding calls cover weakened binding; strength is not graded here.

Experiments:
[1] = molecular target: in vitro translated 35S-methionine labeled mDia2 (mouse) (UniProt Q9Z207); assay: GST pull-down of 35S-labeled in vitro translated protein
[2] = molecular target: T1, in vitro translated 35S-methionine labeled mDia2 GBD (amino acids 101-216) (mouse) (UniProt Q9Z207); assay: as above
T1 sequence (chain, 35S-methionine labeled): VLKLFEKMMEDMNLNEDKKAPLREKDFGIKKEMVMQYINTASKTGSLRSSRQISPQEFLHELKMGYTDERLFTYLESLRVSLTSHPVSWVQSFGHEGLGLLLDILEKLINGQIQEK

[3] = molecular target: in vitro translated 35S-methionine labeled mDia2 (mouse) (UniProt Q9Z207); assay: GST pull-down of 35S-labeled in vitro translated protein, autoradiography
[4] = molecular target: T1, in vitro translated 35S-methionine labeled mDia2 GBD (amino acids 101-216) (mouse); assay: as above

Measured: binding

GST-DAD (glutathione-S-transferase fused to mDia2 DAD, amino acids 1031-1171) (from UniProt Q9Z207 1031-1171)
binds: all assays above
